Measured values as given in PubChem BioAssay AID540275 (National Center for Advancing Translational Sciences (NCATS), 2011).
Among all 320,000 compounds or so, about 620 (0.19%) were called active. Inconclusive means that the source gave no clear call. Such entries were picked first, then a sample of the others. Cut-off read from the data, not from the text of the source: active = activation above about 80%; inconclusive = between about 30% and that limit; inactive = weaker than that.

Sequences of proteins named here, by UniProt entry; tags and fusion partners are left off.
UniProt Q8NER1, whole entry, looked up: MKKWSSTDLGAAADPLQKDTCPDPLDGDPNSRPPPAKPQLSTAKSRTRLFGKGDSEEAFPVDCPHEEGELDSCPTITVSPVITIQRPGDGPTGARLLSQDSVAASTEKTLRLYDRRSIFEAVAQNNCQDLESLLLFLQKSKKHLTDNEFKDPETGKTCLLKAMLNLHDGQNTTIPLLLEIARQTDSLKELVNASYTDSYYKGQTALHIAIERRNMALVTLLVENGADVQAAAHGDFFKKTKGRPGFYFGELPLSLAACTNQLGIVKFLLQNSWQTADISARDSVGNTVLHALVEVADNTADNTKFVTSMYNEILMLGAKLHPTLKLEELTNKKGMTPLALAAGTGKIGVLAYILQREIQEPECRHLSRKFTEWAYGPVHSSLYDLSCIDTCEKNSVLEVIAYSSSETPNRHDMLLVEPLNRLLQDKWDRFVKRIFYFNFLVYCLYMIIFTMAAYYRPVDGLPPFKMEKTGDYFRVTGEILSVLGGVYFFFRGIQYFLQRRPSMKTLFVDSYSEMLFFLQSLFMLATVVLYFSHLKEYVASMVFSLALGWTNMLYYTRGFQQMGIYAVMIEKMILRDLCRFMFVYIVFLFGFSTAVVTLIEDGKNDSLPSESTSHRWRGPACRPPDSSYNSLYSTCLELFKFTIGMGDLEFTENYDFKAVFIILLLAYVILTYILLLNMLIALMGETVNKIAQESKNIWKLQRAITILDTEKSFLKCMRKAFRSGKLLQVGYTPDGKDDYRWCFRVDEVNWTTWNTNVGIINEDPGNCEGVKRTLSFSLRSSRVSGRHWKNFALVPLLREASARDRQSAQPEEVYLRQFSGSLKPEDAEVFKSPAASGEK

target: Transient receptor potential cation channel subfamily V member 1 (Homo sapiens) (UniProt Q8NER1); test: HTS Assay for Compounds that Act as Agonists of the Vanilloid Receptor 1; details: TRPV1-expressing cells, Fluo-8 calcium influx, agonist mode; at 8.33 µM, hits give high values; note: 0% is about no effect
Outline: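 TRPV1-expressing cells were cultured overnight at 35.5C and loaded with Fluo-8 calcium dye for 40 to 90 min at room temperature. After a 10 s baseline, compound was added and calcium influx was read kinetically for 3 min (ex 480/em 520 nm).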

SMILES	activation
CC1(C)Cc2c(cnn2-c2cccc(F)c2)C(NC(=O)CSc2ccncc2)C1 (stereo unspecified)	inconclusive: 72.2%
Cc1cc(NC(=O)CSc2nc3ccccc3[nH]2)n(-c2ccccc2)n1	inactive: -6.49%
Cn1cc(CCNC(=O)C2CCC(=O)N(CCc3ccc(Cl)cc3)C2)cn1 (stereo unspecified)	inactive: -1.61%
Cc1occc1C(=O)N1CCN(c2ccc(Cl)c(Cl)c2)CC1	inconclusive: 48.7%
NC(=O)c1ccc(S(=O)(=O)N2CCSCC2)cc1	inactive: -3.93%
Oc1ccc(/C=N/Nc2cc(N3CCOCC3)nc(N3CCOCC3)n2)cc1O	inconclusive: 67.5%
COc1ccccc1NC(=O)N1CCCC1C(=O)NC12CC3CC(CC(C3)C1)C2 (stereo unspecified)	inconclusive: 54.5%
O=c1c2[nH]c3ccccc3c2ncn1CCN1CCCCC1	inactive: 6.92%
CC(=O)c1ccc(N2CCN(c3ccc(C(F)(F)F)cn3)CC2)cc1	inactive: 0.523%
Nc1cc(-c2nc3ncccc3o2)ccc1Cl	inconclusive: 32.9%
CCCCCCCCCCC(=O)Nc1cccnc1	inconclusive: 50.8%
O=c1c(/C=C(\O)c2ccccc2)nc2ccccc2n1-c1ccccc1	inconclusive: 30.3%
Cc1ccc(/C=N/NC(=O)c2ccc(-n3cnnn3)cc2)cc1	active: 80.2%
Cc1ccc(NS(=O)(=O)c2ccc(C(=O)N3CCCCCCC3)cc2)cc1	inconclusive: 61.5%
O=C(CN1CCN(c2ccc(O)cc2)CC1)NC(c1ccccc1)c1ccccc1	inactive: -4.16%
Oc1cncc(-c2cccnc2)c1	inactive: 1.15%
CCOC(=O)CC1C(=O)NCCN1c1nc2ccc(C)cn2c(=O)c1/C=C1\SC(=S)N(CC(C)C)C1=O (stereo unspecified)	inconclusive: 51%
CSc1ccccc1NC(=O)CN(C)C(C)C(=O)Nc1ccc(C#N)cc1 (stereo unspecified)	inconclusive: 33.8%
NS(=O)(=O)c1ccc(NC(=O)c2ccc(S(=O)(=O)N3CCc4ccccc43)cc2)cc1	inconclusive: 52.1%

Filtered by structure, those above with sulfur (7)
SMILES	activation
CC1(C)Cc2c(cnn2-c2cccc(F)c2)C(NC(=O)CSc2ccncc2)C1 (stereo unspecified)	inconclusive: 72.2%
Cc1cc(NC(=O)CSc2nc3ccccc3[nH]2)n(-c2ccccc2)n1	inactive: -6.49%
NC(=O)c1ccc(S(=O)(=O)N2CCSCC2)cc1	inactive: -3.93%
Cc1ccc(NS(=O)(=O)c2ccc(C(=O)N3CCCCCCC3)cc2)cc1	inconclusive: 61.5%
CCOC(=O)CC1C(=O)NCCN1c1nc2ccc(C)cn2c(=O)c1/C=C1\SC(=S)N(CC(C)C)C1=O (stereo unspecified)	inconclusive: 51%
CSc1ccccc1NC(=O)CN(C)C(C)C(=O)Nc1ccc(C#N)cc1 (stereo unspecified)	inconclusive: 33.8%
NS(=O)(=O)c1ccc(NC(=O)c2ccc(S(=O)(=O)N3CCc4ccccc43)cc2)cc1	inconclusive: 52.1%

Next compounds.

SMILES	activation
O=C(CN1CCC(NC(=O)Nc2ccccc2)CC1)Nc1ccccc1F	inconclusive: 51.1%
CN(c1ccccc1)S(=O)(=O)c1cccc(C(=O)Nc2nccs2)c1	inactive: 27.3%
CC(C)(C)c1ccc2c(c1)OC(C(=O)N/N=C\c1ccccn1)CO2 (stereo unspecified)	inactive: -5.52%
CCCCn1nc(NC(=O)CCC)c2cc3cc(OC)ccc3nc21	inconclusive: 56.4%
COc1ccc2c(C(=O)CCl)c[nH]c2c1	inactive: 0.469%
CC(C)(C)NC(=O)NC(=O)CN1CCN(C(c2ccccc2)c2ccccc2)CC1	inconclusive: 32.7%
CCOC(=O)c1cc2c(n(-c3ccc(Cl)cc3)c1=O)CCCC2=O	inactive: -1.11%
Cc1csc2c(N3CCN(C(=O)Nc4ccccc4)CC3)ncnc12	inconclusive: 63.7%
Cc1nnc(N2CCCC(C(=O)NCc3ccc(OC(C)C)cc3)C2)c2nn(-c3ccccc3)c(C)c12 (stereo unspecified)	inconclusive: 60.3%
Cn1cc(-c2cccc(C(F)(F)F)c2)cc(C#N)c1=O	inactive: 0.103%
Cc1ccc(C(=O)Nc2cccc(N3C(=O)C4CCC(C)CC4C3=O)c2)cc1 (stereo unspecified)	inconclusive: 43.3%
C=CCNC(=O)/C(C#N)=C/c1cn(-c2ccccc2)nc1-c1cccs1	inconclusive: 55.1%
CSCC[C@H](NC(=O)C(C)(C)Oc1ccc(Cl)cc1)c1nc2ccccc2[nH]1	inconclusive: 40.8%
COc1ccc(Cl)cc1NC(=O)CN(C)C(=O)C12CC3CC(CC(Cl)(C3)C1)C2	inconclusive: 35.5%
CCOC(=O)c1c(NC(=S)Nc2ccccc2)sc2c1CCN(CCc1ccccc1)C2	inactive: 0.321%
Cc1cc2c(cc(C(=O)N3CCC(C(=O)NC4CCCC4)CC3)n2Cc2c(F)cccc2Cl)o1	inactive: 14.8%
CCOC(=O)c1nnc(-c2ccccc2)nc1N1CCSCC1	inconclusive: 33%
CC1(C)Cc2cccc(OCC(=O)N3CCN(S(=O)(=O)c4ccc(F)cc4)CC3)c2O1	inconclusive: 55.9%
O=C(Nc1ccc2c(c1)OCO2)C1CCN(Cc2cc3c(cc2O)OCO3)CC1	inconclusive: 32%

SMILES	activation
CCCn1c(O)c(N=NC(=O)CNC(=O)Cc2ccc(OC)cc2)c2ccccc21	inconclusive: 34.5%
CC(NC(=O)c1ccc([N+](=O)[O-])o1)C12CC3CC(CC(C3)C1)C2 (stereo unspecified)	inconclusive: 40.7%
COc1ccc(Cc2nc(C(=O)Nc3ccc(F)cc3)cs2)cc1	inconclusive: 57.5%
Cc1ccc(Cn2c(N)c(S(=O)(=O)c3cccs3)c3nc4ccccc4nc32)cc1	inactive: -2.37%
COc1ccc(C(=O)N2CCc3ccc(NC(=O)c4ccccn4)cc3C2)cc1F	inconclusive: 49.2%
O=C1CCN(CCc2ccccc2)CCN1CCSc1ccc(Br)cc1	inconclusive: 40.3%
O=C(c1ccc(Br)s1)N1CCc2ccccc2C1	inconclusive: 36.8%
O=C(CCn1c(=O)[nH]c2ccsc2c1=O)N1CCN(c2ccc([N+](=O)[O-])cc2)CC1	inactive: 1.77%
Cc1nc2ccc(C(=O)Nc3cccc([N+](=O)[O-])c3)cc2s1	inconclusive: 45.9%
COc1ccccc1N1CCN(C(=O)Nc2cccc(Cl)c2)CC1	inconclusive: 50.6%
Cc1ccc(NC(=O)CCN2C(=O)C3CC=CCC3C2=O)cc1Cl (stereo unspecified)	inconclusive: 30.3%
CC(C)c1ccc(NC2CCCN(C(=O)c3ccco3)C2)cc1 (stereo unspecified)	active: 97.5%
Cc1ccc(S(=O)(=O)CCC(=O)NCCC2=CCCCC2)cc1	inconclusive: 42.9%
CCCc1ccc(-c2cc(C(=O)NCCc3ccc(S(N)(=O)=O)cc3)c3ccccc3n2)cc1	inactive: -3.31%
COc1ccc(/C=N/n2c(SC)nnc2-c2ccccc2)cc1C	inconclusive: 71.4%
COc1ccc(C2CCCN2C(=S)Nc2ccc(C)c(C)c2)cc1OC (stereo unspecified)	inactive: 10.8%
N#CCCn1nc(-c2ccccc2)cc1Nc1ccccc1NC(=O)c1cccs1	inconclusive: 52.5%
O=C(COC(=O)CCSc1ccccc1)NCc1ccc(F)cc1	inconclusive: 62.3%

2 of the compounds above, as labelled records.
O=C(c1ccc(Br)s1)N1CCc2ccccc2C1
  activation: inconclusive: 36.8%
O=C(CCn1c(=O)[nH]c2ccsc2c1=O)N1CCN(c2ccc([N+](=O)[O-])cc2)CC1
  activation: inactive: 1.77%
